# Measurements reported in the supplement of paper PMC10849652.
# Sequences of proteins named here, by UniProt entry; tags and fusion partners are left off. A change or cut given only in a name is not applied to a line headed by its entry.
# UniProt O60739, whole entry, looked up: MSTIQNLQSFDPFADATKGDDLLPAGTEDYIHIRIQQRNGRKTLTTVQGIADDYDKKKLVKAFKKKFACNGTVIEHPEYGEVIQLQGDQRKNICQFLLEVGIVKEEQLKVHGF
# UniProt Q92782, whole entry, looked up: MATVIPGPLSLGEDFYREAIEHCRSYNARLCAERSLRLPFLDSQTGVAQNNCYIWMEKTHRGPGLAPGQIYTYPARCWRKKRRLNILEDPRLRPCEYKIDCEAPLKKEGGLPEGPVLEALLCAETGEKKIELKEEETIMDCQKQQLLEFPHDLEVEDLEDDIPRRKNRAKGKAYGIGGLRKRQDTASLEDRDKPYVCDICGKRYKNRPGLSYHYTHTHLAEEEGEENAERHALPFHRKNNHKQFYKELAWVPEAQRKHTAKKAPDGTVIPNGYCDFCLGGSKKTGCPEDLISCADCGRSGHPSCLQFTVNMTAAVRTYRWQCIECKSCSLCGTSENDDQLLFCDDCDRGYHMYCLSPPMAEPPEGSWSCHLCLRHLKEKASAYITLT
# UniProt Q96C19: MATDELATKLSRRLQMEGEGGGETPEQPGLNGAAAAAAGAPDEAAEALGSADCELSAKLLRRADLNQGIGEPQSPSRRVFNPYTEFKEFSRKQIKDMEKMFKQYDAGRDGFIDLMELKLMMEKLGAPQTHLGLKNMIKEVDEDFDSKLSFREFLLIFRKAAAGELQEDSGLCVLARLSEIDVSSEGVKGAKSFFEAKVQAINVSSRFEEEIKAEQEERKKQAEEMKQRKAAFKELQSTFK
# UniProt Q7L8W6: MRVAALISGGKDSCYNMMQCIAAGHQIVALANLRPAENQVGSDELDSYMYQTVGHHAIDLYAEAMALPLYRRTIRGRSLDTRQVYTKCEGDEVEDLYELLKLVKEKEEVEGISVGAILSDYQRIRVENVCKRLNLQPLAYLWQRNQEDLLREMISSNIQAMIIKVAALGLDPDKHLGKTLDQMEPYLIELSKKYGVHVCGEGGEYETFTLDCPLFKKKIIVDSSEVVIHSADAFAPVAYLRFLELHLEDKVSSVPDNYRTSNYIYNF
# UniProt Q96FJ2, whole entry, looked up: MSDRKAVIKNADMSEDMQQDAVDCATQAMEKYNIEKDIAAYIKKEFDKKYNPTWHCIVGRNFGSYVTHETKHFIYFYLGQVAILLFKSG
# UniProt Q9BQC3: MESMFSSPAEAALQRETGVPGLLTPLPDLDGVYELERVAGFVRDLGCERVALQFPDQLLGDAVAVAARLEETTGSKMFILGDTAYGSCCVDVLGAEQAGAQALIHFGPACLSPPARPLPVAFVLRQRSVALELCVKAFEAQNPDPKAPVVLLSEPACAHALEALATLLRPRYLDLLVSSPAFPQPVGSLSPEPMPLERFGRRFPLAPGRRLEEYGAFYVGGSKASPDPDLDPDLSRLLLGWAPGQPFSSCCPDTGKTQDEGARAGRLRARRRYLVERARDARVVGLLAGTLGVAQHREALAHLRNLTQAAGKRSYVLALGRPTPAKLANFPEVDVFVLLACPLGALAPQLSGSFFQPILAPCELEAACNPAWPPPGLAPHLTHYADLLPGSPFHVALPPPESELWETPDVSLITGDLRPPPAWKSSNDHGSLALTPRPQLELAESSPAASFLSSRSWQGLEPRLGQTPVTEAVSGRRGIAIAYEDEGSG
# UniProt Q8TCX1: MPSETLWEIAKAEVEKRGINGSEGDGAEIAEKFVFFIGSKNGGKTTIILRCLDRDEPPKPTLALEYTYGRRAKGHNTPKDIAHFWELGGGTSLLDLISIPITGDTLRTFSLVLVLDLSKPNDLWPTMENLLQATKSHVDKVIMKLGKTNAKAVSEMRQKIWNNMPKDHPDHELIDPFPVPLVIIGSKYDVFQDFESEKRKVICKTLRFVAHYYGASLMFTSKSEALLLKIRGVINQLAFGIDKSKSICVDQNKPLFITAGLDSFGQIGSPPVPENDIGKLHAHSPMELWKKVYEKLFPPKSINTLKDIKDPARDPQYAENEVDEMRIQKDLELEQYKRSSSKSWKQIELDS
# UniProt Q15029: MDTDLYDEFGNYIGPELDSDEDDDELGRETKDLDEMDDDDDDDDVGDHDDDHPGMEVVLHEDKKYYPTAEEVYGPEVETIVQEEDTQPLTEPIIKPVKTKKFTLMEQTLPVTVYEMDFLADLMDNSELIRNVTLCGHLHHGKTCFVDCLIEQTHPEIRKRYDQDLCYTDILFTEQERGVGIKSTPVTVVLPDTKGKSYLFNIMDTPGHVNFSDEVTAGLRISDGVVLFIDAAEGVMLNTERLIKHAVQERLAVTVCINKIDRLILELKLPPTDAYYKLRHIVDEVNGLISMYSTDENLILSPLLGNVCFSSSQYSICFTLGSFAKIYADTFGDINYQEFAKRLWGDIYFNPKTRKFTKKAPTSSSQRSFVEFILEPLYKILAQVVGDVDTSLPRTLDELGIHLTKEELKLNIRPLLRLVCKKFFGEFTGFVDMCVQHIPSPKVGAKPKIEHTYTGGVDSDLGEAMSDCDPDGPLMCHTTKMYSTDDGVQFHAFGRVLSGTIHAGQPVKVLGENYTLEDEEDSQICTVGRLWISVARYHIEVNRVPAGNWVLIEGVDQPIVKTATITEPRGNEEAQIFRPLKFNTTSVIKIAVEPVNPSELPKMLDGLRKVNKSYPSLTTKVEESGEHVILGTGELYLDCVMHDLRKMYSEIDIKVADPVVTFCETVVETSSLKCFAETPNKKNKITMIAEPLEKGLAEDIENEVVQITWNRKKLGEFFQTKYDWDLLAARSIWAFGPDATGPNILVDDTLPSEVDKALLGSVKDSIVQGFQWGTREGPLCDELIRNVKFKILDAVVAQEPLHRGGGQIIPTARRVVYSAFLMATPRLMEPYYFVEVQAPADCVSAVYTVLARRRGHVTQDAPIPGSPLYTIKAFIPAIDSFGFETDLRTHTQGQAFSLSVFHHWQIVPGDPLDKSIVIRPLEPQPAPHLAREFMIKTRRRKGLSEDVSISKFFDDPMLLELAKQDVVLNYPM
# UniProt Q14919: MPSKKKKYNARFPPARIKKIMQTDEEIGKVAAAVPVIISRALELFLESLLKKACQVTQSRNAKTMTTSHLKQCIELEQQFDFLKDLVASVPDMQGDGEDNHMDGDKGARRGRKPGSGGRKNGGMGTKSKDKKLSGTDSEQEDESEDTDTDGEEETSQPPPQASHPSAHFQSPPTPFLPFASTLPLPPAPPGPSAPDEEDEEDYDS
# UniProt P63167, whole entry, looked up: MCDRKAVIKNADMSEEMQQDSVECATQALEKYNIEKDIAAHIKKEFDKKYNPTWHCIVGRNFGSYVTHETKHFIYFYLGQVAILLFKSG
# UniProt Q9BVJ7: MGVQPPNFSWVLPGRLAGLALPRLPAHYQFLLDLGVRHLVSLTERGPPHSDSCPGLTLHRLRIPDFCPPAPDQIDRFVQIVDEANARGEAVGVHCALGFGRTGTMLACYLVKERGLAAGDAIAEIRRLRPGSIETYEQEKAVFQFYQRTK
# UniProt Q9BUP0: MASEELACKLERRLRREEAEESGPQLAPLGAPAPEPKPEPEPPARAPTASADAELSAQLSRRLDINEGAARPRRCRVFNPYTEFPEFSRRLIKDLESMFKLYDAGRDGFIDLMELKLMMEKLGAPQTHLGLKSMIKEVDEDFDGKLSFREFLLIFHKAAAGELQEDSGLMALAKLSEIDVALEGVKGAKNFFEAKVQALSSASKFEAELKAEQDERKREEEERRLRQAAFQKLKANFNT
# UniProt P0DPD7: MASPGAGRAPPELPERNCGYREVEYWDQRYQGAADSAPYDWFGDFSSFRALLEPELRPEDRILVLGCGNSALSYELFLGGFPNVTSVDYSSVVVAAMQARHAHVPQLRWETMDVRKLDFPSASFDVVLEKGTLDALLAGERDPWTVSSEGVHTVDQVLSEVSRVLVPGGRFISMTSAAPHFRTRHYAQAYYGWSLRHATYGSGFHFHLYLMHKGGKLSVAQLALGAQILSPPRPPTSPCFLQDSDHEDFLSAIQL
# UniProt Q96FX2: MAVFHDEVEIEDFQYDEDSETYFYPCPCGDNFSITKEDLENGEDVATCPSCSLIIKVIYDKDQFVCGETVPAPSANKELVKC
# UniProt P26641, whole entry, looked up: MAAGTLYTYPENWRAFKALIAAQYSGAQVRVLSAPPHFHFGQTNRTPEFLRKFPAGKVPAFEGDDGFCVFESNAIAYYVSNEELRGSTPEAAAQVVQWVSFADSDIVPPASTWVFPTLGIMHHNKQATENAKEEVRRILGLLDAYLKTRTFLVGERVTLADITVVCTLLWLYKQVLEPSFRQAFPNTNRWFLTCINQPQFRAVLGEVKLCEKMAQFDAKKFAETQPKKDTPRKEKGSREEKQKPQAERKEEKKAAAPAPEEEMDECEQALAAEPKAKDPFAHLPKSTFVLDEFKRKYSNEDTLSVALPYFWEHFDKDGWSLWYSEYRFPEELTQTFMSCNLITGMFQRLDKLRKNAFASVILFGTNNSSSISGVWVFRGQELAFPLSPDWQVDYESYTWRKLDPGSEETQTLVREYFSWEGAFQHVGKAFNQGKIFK
# UniProt Q9H2P9: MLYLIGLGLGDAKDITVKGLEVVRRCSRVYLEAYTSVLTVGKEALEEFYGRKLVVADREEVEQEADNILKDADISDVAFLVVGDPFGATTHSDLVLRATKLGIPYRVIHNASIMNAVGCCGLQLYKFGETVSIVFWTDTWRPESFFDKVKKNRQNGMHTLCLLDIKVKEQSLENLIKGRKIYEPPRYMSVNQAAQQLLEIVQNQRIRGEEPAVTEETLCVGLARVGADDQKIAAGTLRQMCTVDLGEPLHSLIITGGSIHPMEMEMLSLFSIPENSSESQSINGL
# UniProt P42126: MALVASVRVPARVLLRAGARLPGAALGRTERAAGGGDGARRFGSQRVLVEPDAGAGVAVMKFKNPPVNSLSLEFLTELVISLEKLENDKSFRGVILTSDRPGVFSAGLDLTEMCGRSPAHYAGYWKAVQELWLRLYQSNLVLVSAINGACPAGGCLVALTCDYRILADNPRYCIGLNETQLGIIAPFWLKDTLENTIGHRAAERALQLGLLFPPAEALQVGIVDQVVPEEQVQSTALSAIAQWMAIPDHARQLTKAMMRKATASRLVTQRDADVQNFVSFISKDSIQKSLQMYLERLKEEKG
# UniProt Q8NDI1: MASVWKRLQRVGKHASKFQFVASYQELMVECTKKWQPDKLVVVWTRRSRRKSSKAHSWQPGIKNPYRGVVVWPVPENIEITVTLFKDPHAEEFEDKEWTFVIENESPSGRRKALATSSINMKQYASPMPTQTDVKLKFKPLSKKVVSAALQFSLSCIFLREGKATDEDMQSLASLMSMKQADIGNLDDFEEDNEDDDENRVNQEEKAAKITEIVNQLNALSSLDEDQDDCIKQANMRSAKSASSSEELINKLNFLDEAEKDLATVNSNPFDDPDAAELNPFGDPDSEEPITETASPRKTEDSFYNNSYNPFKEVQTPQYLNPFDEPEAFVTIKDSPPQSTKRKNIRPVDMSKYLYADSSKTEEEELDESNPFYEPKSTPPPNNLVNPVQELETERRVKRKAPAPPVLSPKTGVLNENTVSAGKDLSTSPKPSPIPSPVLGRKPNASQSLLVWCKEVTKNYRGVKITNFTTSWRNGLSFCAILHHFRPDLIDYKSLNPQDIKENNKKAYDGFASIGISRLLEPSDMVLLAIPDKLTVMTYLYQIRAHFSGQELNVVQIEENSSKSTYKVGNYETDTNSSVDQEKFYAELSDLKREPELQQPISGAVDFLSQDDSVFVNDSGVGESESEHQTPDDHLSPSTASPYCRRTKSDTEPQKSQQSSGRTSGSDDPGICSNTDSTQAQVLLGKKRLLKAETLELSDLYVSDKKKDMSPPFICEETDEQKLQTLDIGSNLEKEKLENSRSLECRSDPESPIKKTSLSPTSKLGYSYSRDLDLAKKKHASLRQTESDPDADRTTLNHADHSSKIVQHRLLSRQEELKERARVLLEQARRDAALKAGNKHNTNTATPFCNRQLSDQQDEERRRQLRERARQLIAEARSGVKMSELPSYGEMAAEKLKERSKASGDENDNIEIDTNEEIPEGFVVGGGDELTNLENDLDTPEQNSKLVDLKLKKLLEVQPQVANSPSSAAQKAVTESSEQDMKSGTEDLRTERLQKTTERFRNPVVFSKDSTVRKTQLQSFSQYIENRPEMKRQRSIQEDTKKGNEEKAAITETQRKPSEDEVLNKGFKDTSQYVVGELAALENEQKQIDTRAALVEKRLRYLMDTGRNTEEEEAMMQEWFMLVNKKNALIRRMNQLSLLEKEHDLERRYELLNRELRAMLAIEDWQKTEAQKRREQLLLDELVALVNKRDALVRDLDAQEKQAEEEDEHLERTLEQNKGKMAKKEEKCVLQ
# EEF1AKMT2, A0A494BZY7, UniProt A0A494BZY7, whole entry, looked up: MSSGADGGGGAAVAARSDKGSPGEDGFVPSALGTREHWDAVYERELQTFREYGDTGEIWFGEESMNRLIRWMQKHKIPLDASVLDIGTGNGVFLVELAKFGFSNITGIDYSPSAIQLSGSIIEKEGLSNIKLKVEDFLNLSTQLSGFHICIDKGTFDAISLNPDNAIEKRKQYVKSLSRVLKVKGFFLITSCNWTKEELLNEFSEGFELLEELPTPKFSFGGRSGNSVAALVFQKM
# Some of the results follow.
# Compound: CC1=C2C(=CC=C1)N=C(N(C2=O)C3=CC=CC=C3C)CN4C=NC5=C(N=CN=C54)N
# Experiment: log2 fold change, soluble protein after heating vs DMSO (PISA); higher = thermal stabilisation; K562 lysate, 10 uM; active = over 0.2 and 3.5 SD of the protein, either way, in both replicates (recomputed)
# Method in brief: (§1)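 Values give the log-two fold change in thermal stability against solvent controls, from duplicates. Crude K562 extract at 1 mg/mL protein, made by dounce homogenisation in PBS pH 7.4 with 1 mM MgCl2, was treated with 10 μM compound for 30 min. After 3 min heating across 48°C-58°C, aliquots were pooled, adjusted to 0.5% NP-40 at 4°C and centrifuged at 21,000xg for 90 min. The supernatant was measured by TMTpro 16plex LC-MS/MS with channel sums equalised.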
row,Target,log2 fold change
1,EIF1B (UniProt O60739),inactive: 0.192
2,DPF1 isoform 2 (UniProt Q92782),inactive: -0.081
3,EFHD2 (UniProt Q96C19),inactive: -0.01
4,DPH6 (UniProt Q7L8W6),inactive: 0.048
5,DYNLL2 (UniProt Q96FJ2),inactive: 0.021
6,DPH2 (UniProt Q9BQC3),inactive: 0.021
7,DYNC2LI1 (UniProt Q8TCX1),inactive: -0.102
8,EFTUD2 (UniProt Q15029),inactive: -0.009
9,DRAP1 isoform 2 (UniProt Q14919),inactive: 0.008
10,DYNLL1 (UniProt P63167),inactive: 0.02
11,DUSP23 (UniProt Q9BVJ7),inactive: 0.033
12,EFHD1 (UniProt Q9BUP0),inactive: -0.04

# Compound: Cc1sc2c(c1C)C(c1ccc(Cl)cc1)=N[C@@H](CC(=O)OC(C)(C)C)c1nnc(C)n1-2
# Experiment: as above
# Method in brief: as §1
row,Target,log2 fold change
1,EEF1AKMT4 (UniProt P0DPD7),inactive: 0.017
2,DPH3 (UniProt Q96FX2),inactive: -0.031
3,ECH1 (UniProt Q13011),inactive: -0.026
4,EFL1 (UniProt Q7Z2Z2),inactive: -0.006
5,EBNA1BP2 (UniProt Q99848),inactive: -0.035
6,EAF1 (UniProt Q96JC9),inactive: 0.019
7,DYSF isoform 13 (UniProt O75923),inactive: -0.03
8,DTX3L (UniProt Q8TDB6),inactive: -0.027
9,EEF1G isoform 2 (UniProt P26641),inactive: 0.096
10,DPH5 isoform 5 (UniProt Q9H2P9),inactive: -0.144
11,DST (UniProt Q03001),inactive: -0.061
12,DTNBP1 (UniProt Q96EV8),inactive: 0.002
13,DSC2 (UniProt Q02487),inactive: -0.053
14,DTL (UniProt Q9NZJ0),inactive: -0.032
15,ECI1 (UniProt P42126),inactive: 0.014
16,DVL2 (UniProt O14641),inactive: 0.098
17,EHBP1 isoform 2 (UniProt Q8NDI1),inactive: -0.014

row,Target,log2 fold change
1,DXO (UniProt O77932),inactive: 0.011
2,EIF2A (UniProt Q9BY44),inactive: 0.008
3,"EEF1AKMT2, A0A494BZY7",inactive: 0
4,DUT (UniProt P33316),inactive: -0.041
5,EDRF1 (UniProt Q3B7T1),inactive: -0.013
6,EIF1B (UniProt O60739),inactive: -0.108
7,DPF1 isoform 2 (UniProt Q92782),inactive: 0.124
8,EFHD2 (UniProt Q96C19),inactive: -0.037
9,DPH6 (UniProt Q7L8W6),inactive: 0.052
10,DYNLL2 (UniProt Q96FJ2),inactive: 0.012
11,DPH2 (UniProt Q9BQC3),inactive: 0.039
12,DYNC2LI1 (UniProt Q8TCX1),inactive: 0.025
13,EFTUD2 (UniProt Q15029),inactive: 0.028
14,DRAP1 isoform 2 (UniProt Q14919),inactive: 0.015
15,DYNLL1 (UniProt P63167),inactive: -0.01
16,DUSP23 (UniProt Q9BVJ7),inactive: 0.003
17,EFHD1 (UniProt Q9BUP0),inactive: 0.028

# Compound: c1ccc([C@@H]2C[C@H]2NC2CCNCC2)cc1
# Experiment: as above
# Method in brief: as §1
row,Target,log2 fold change
1,EEF1AKMT4 (UniProt P0DPD7),inactive: -0.063
2,DPH3 (UniProt Q96FX2),inactive: -0.091
3,ECH1 (UniProt Q13011),inactive: 0.012
4,EFL1 (UniProt Q7Z2Z2),inactive: 0.082
5,EBNA1BP2 (UniProt Q99848),inactive: 0.014
6,EAF1 (UniProt Q96JC9),inactive: -0.055
7,DYSF isoform 13 (UniProt O75923),inactive: 0.034
8,DTX3L (UniProt Q8TDB6),inactive: -0.081
9,EEF1G isoform 2 (UniProt P26641),inactive: 0.056
10,DPH5 isoform 5 (UniProt Q9H2P9),inactive: -0.118
11,DST (UniProt Q03001),inactive: -0.077
12,DTNBP1 (UniProt Q96EV8),inactive: 0.021
13,DSC2 (UniProt Q02487),inactive: -0.01
14,DTL (UniProt Q9NZJ0),inactive: -0.01
15,ECI1 (UniProt P42126),inactive: 0.007
16,DVL2 (UniProt O14641),inactive: -0.017
17,EHBP1 isoform 2 (UniProt Q8NDI1),inactive: 0.071

row,Target,log2 fold change
1,DXO (UniProt O77932),inactive: 0.108
2,EIF2A (UniProt Q9BY44),inactive: -0.027
3,"EEF1AKMT2, A0A494BZY7",inactive: 0.017
4,DUT (UniProt P33316),inactive: -0.066
5,EDRF1 (UniProt Q3B7T1),inactive: 0.009
6,EIF1B (UniProt O60739),inactive: -0.245
7,EFHD2 (UniProt Q96C19),inactive: -0.015
8,DPH6 (UniProt Q7L8W6),inactive: 0.046
9,DYNLL2 (UniProt Q96FJ2),inactive: -0.034
10,DPH2 (UniProt Q9BQC3),inactive: -0.041
11,DYNC2LI1 (UniProt Q8TCX1),inactive: -0.034
12,EFTUD2 (UniProt Q15029),inactive: 0.019
13,DRAP1 isoform 2 (UniProt Q14919),inactive: -0.015
14,DYNLL1 (UniProt P63167),inactive: -0.051
15,DUSP23 (UniProt Q9BVJ7),inactive: -0.072
16,EFHD1 (UniProt Q9BUP0),inactive: -0.13
